These are yes or no findings as the source states them, for the method shown. Binding can be weak; no strength is given.
Legend:
collagen type I = assay: ELISA: collagen type I coated at 25 µg/ml, purified VHH in twofold dilutions, detection as in Example 7 (Example 34) [collagen type I]
collagen type III = assay: ELISA: collagen type III coated at 25 µg/ml, purified VHH in twofold dilutions, detection as in Example 7 (Example 34) [collagen type III]

Binder	binding (collagen type I)	binding (collagen type III)
3P2-31 (VHH) VHH: QVQLQESGGGLVQAGDSLRLSCAASGRTFTMGWFRQAPGKERQFVAALTWTGGSPVYADSVKGRFTTWRVLDNNTVYLHMNSLKPEDTAVYHCAAARTYYGNISEYYDYWGQGTQVTVSS	binds	binds
3P1-31 (VHH) VHH: QVQLQESGGGLVQAGGSLRLSCAASGRTFRRYAMGWYRQAPGKQRELVAAITSGGRTSVADTVKGRFTISSDNAKNTVYLQMNSLKPEDAAVYYCTLYNSTTNYYNQSPSSWGQGTQVTVSS	binds	binds
3L-41 (VHH) VHH: QVQLQDSGGGLVQAGGSLRLSCAASGRTFRRYAMGWYRQAPGKQRVLVAAITSNGRPSVADSVKGRFTISSDTAKNTVYLQMNSLKPEDTALYYCTLYNTSADYYNQSPSSWGQGTQVTVLS	binds	binds

— patent US9028816
